Common to all, as to experiment: co-IP; HEK293T cells co-transfected with a Flag-tagged protein and GFP-tagged ORMDL3 (whole or truncated); lysates immunoprecipitated with anti-Flag antibody and protein A/G beads, blots with anti-GFP and anti-Flag; in Figure 5B with or without poly(I:C) co-transfection
The target in test [1] is T1, Flag-IRF3 (UniProt Q14653).
T1 sequence: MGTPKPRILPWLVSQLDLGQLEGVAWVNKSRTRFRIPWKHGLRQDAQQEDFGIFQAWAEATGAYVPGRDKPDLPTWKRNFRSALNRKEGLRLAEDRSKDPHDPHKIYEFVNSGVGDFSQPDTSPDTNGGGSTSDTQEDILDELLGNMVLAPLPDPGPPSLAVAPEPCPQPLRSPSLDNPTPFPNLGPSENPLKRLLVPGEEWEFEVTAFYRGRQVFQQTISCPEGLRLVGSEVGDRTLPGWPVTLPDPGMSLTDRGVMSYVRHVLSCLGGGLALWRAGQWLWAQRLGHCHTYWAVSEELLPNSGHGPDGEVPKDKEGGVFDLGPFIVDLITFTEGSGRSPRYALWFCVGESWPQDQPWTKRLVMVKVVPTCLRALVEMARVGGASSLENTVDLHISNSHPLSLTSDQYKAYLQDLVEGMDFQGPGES

Protein sequences, listed by entry. Tags and fused reporters are not part of them.
UniProt Q7Z434: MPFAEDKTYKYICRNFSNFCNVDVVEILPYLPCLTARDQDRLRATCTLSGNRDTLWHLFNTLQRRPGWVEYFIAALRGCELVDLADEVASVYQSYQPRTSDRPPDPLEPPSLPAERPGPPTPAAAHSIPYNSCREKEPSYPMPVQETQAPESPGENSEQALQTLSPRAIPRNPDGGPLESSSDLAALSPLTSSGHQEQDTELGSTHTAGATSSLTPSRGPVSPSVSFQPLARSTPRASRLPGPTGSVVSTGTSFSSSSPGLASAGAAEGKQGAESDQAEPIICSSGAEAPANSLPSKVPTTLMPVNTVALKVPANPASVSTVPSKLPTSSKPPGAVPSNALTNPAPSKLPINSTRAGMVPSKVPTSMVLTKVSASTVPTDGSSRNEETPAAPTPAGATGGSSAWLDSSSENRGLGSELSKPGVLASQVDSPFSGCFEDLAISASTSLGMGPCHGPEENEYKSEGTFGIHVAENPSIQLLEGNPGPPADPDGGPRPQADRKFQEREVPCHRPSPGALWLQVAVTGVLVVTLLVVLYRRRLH
UniProt O94874: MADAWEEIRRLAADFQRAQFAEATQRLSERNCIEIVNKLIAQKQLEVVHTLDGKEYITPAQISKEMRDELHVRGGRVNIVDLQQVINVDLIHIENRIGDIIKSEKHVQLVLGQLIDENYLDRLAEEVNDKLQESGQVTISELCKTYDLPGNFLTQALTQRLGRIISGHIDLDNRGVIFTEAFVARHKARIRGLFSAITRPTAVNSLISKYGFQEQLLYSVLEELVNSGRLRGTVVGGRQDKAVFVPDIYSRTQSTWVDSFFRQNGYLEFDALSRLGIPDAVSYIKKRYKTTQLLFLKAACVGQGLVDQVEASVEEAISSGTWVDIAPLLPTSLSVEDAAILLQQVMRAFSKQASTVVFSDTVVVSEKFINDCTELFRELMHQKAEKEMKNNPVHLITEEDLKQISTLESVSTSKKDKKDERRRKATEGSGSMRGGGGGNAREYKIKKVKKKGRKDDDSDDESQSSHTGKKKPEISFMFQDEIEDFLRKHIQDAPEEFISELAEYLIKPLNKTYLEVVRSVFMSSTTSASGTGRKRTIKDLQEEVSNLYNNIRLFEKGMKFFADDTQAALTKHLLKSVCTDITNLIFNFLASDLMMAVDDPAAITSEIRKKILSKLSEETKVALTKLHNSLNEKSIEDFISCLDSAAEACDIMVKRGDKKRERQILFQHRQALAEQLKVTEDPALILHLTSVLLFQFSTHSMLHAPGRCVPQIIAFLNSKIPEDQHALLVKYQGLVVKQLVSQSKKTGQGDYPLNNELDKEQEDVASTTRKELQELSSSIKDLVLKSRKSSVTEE

The target in test [2] is Flag-MAVS (UniProt Q7Z434).
In test [3] the target is T2, Flag-MDA5 (UniProt Q9BYX4).
T2 sequence: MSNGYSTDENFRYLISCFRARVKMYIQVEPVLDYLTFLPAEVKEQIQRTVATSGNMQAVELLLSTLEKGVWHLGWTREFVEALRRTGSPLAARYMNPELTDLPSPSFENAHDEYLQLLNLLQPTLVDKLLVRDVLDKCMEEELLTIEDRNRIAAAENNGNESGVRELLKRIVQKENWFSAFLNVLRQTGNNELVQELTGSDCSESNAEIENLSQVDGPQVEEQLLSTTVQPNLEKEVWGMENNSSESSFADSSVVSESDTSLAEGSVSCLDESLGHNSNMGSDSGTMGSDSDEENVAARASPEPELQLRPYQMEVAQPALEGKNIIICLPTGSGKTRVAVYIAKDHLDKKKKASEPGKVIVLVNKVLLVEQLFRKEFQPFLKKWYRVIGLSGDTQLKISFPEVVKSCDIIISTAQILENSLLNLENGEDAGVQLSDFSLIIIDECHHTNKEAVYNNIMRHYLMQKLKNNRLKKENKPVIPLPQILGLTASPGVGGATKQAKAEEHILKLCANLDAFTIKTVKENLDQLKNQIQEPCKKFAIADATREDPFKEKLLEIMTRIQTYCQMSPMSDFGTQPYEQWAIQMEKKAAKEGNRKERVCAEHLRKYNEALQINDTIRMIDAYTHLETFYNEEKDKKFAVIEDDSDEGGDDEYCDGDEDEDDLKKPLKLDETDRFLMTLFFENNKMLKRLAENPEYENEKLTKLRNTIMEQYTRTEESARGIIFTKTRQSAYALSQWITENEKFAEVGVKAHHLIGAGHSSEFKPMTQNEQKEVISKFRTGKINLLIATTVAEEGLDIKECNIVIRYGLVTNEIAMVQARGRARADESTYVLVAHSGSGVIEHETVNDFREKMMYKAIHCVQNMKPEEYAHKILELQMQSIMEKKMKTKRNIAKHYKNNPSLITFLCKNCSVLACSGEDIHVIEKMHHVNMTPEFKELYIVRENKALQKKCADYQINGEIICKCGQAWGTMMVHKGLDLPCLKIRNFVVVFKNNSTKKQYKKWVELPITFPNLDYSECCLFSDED

For test [4], the target named is T3, Flag-RIG-I (human) (UniProt O95786).
T3 sequence: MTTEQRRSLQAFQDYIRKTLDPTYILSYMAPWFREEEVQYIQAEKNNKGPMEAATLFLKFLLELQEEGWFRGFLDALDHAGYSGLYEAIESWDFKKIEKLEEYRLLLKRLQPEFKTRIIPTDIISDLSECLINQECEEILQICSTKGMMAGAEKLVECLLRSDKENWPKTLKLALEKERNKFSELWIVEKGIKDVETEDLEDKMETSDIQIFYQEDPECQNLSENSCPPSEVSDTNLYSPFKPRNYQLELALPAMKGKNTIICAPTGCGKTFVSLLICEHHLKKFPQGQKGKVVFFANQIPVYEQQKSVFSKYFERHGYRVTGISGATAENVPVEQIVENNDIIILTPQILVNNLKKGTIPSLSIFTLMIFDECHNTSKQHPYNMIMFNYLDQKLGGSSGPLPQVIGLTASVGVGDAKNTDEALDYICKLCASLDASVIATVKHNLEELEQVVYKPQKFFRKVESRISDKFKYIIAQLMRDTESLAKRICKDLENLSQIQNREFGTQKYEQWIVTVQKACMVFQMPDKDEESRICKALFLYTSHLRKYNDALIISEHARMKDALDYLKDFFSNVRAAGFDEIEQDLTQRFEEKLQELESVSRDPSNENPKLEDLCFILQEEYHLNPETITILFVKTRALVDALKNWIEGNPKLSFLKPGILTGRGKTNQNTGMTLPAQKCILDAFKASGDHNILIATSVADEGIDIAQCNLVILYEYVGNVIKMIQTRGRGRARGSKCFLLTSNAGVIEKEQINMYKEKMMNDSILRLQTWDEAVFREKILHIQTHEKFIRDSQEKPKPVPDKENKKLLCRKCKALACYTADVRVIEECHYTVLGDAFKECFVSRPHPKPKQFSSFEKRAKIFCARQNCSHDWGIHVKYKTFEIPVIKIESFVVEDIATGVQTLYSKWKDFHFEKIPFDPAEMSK

The target in test [5] is UFL1 (UniProt O94874).

Results are given in words; binding and its absence hold for the method and conditions named. In cells and extracts the contact can be indirect. Some binding calls cover weakened binding; strength is not graded here. Tags and fused reporters may be left off the sequences shown.

B1: ORMDL3-GFP (protein, UniProt Q8N138 1-153)
chain: MNVGTAHSEVNPNTRVMNSRGIWLSYVLAIGLLHIVLLSIPFVSVPVVWTLTNLIHNMGMYIFLHTVKGTPFETPDQGKARLLTHWEQMDYGVQFTASRKFLTITPIVLYFLTSFYTKYDQIHFVLNTVSLMSVLIPKLPQLHGVRIFGINKY
For B1, the binding result in test [1] was “no binding”; in test [2] it was “binds”; in test [3], “no binding”; in test [4] it was “no binding”; in test [5] it was “no binding”.

The record behind these values is paper PMC11932694.
